Measurements from the supplement of paper PMC12823440, “Inhibitors supercharge kinase turnover through native proteolytic circuits” (Nature, 2025).
The other results are listed elsewhere or left out. Hit calls seldom repeat between salt and free forms of one compound.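 In K562 cells expressing nanoluciferase-fused kinases, luminescence was recorded at 4 h intervals between 2 and 18 h, normalized as percent of control with DMSO at 100% and a positive control at 0%. A significant (2 sigma) signal drop marks a time point as decreased. The authors' rule for a hit is not shown and takes in more than the number of time points.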

By UniProt entry, the sequences of proteins in these tests, tags left out. Where a name states a change or a piece, a line headed by the entry shows the natural chain unless it says otherwise.
UniProt P28482, whole entry: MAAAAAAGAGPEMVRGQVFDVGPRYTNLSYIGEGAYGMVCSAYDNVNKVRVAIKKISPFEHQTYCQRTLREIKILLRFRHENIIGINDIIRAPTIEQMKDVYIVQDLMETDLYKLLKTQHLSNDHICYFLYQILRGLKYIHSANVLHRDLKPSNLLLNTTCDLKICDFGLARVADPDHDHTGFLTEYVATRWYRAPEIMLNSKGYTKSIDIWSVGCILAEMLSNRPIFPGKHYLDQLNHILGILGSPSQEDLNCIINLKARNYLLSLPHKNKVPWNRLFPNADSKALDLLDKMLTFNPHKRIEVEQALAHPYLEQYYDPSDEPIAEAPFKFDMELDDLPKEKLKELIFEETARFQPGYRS
UniProt Q9BUB5: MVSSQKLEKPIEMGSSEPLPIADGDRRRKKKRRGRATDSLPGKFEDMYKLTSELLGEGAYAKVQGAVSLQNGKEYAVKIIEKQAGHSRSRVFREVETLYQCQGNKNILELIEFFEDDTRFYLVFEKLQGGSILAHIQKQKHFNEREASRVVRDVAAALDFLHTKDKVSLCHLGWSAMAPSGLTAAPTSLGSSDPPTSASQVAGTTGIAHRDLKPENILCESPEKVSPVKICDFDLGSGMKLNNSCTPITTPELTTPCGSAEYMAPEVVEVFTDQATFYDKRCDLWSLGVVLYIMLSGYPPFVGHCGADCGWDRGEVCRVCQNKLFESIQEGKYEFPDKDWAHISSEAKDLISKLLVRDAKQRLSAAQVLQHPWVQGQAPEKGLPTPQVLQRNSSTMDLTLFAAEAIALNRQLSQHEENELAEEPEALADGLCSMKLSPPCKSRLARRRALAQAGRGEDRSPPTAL
UniProt Q16620, whole entry, looked up: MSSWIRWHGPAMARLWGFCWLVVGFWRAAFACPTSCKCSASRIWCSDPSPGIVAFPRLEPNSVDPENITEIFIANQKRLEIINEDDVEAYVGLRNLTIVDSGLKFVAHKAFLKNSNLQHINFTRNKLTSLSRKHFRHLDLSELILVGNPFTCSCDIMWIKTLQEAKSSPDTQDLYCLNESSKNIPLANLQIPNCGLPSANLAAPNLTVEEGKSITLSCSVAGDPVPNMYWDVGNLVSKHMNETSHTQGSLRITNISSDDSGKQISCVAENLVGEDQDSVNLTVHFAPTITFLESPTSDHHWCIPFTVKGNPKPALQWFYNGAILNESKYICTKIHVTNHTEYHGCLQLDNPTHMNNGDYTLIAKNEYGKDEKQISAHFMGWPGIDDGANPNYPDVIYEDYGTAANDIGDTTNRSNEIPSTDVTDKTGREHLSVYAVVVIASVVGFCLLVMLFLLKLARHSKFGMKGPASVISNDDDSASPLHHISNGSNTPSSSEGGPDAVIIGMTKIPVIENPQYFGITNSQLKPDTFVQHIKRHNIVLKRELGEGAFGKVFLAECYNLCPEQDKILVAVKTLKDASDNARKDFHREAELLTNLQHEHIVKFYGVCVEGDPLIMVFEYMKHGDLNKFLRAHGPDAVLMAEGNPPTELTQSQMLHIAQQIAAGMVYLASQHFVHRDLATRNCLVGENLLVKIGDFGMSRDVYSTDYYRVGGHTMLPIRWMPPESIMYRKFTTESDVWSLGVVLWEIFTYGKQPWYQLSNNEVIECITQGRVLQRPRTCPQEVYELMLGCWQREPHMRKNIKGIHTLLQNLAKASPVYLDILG
UniProt O96013: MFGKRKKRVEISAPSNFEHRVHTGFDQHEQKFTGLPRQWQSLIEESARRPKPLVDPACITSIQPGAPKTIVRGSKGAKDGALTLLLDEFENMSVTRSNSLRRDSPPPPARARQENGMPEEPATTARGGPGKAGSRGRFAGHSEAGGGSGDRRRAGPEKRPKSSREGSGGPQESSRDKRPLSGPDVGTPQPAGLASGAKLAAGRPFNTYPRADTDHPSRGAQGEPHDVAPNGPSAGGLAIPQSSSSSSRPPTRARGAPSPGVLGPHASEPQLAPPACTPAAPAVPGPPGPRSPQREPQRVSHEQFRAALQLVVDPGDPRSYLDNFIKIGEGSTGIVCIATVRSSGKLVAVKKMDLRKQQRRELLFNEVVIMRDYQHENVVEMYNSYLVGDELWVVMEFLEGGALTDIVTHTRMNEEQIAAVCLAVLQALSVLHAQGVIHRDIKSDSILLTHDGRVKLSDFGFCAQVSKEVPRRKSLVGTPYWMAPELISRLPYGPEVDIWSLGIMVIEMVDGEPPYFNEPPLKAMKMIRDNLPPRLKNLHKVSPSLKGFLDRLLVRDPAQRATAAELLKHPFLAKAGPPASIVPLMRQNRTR
UniProt P09619, whole entry: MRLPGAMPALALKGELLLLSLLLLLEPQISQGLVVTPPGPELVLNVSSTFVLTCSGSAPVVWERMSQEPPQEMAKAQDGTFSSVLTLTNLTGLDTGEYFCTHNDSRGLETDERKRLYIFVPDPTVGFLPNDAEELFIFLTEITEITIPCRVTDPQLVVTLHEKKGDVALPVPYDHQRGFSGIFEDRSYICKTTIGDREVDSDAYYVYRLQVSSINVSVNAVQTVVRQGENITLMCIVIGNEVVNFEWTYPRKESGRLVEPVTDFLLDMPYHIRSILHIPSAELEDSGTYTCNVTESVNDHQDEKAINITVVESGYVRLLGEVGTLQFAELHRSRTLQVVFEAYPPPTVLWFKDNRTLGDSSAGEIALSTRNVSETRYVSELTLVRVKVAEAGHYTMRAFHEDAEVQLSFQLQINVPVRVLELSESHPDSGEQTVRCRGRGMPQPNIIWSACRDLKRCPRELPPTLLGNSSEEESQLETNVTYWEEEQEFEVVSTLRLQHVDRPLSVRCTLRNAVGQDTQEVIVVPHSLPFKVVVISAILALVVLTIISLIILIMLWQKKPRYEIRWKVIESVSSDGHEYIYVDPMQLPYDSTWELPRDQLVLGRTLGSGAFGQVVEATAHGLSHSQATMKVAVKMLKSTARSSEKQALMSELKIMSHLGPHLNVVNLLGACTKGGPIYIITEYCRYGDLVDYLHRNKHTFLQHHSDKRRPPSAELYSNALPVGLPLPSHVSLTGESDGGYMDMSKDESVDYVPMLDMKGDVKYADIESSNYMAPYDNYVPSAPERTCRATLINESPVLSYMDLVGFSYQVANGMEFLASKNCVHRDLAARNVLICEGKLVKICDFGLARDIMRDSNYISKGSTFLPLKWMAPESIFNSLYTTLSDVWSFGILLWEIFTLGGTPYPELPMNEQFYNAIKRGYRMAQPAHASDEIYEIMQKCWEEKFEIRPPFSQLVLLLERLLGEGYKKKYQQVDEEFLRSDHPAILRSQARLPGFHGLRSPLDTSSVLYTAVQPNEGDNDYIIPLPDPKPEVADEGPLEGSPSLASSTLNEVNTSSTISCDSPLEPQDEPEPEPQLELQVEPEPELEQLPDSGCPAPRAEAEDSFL
UniProt Q15118, whole entry, looked up: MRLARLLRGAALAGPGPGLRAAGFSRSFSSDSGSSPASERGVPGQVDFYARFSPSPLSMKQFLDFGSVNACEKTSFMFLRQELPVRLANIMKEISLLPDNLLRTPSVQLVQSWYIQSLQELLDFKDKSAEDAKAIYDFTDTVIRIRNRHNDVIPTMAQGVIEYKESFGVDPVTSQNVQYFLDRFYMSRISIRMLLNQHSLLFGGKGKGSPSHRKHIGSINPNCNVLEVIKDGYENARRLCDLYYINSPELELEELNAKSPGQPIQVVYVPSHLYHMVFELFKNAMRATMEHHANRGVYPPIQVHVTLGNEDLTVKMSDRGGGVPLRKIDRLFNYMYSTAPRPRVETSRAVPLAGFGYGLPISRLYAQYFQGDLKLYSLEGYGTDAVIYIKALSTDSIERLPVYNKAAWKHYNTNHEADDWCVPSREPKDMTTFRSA
UniProt O15530: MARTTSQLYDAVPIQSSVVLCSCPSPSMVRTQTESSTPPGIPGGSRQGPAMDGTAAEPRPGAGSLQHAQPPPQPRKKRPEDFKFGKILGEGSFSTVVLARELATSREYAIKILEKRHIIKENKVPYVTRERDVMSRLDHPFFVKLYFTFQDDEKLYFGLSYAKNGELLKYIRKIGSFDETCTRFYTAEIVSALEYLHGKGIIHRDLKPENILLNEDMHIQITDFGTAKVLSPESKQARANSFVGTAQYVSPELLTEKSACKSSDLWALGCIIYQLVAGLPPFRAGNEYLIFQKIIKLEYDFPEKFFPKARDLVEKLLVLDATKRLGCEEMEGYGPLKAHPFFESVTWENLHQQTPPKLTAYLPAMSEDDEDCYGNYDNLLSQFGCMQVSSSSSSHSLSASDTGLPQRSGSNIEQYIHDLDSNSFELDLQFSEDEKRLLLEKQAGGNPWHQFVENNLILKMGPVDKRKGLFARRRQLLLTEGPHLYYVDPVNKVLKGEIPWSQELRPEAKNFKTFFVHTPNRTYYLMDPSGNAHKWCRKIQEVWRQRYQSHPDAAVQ
UniProt P53350, whole entry: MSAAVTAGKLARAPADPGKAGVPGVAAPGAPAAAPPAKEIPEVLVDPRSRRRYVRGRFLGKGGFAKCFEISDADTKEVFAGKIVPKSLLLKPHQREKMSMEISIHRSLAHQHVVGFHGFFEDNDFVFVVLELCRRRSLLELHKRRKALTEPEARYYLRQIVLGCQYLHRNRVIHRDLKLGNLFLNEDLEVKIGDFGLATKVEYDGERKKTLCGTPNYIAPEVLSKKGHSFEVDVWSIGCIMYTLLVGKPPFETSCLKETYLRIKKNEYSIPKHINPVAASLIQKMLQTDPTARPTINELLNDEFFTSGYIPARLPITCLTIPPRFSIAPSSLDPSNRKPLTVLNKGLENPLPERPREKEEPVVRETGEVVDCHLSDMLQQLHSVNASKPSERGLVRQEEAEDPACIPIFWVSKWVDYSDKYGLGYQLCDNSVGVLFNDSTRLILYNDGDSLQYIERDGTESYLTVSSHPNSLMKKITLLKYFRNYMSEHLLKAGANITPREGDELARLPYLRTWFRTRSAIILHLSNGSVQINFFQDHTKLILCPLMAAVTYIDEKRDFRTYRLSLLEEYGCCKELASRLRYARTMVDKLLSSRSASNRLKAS
UniProt Q13131: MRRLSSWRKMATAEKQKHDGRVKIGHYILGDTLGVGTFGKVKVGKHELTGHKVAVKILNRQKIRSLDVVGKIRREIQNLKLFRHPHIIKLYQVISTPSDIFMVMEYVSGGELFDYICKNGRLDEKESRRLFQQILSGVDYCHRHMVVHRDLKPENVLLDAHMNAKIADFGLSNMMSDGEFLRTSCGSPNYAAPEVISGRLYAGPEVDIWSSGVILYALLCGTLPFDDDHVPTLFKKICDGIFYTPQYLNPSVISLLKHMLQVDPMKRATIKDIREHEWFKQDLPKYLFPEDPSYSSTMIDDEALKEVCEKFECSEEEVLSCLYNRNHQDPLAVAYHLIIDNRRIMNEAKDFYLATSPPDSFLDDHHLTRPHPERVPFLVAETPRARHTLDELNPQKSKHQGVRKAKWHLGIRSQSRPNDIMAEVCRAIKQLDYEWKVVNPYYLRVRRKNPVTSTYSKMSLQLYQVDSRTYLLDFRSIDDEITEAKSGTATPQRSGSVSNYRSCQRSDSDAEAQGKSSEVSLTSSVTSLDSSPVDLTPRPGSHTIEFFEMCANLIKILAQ
UniProt Q05397, whole entry, looked up: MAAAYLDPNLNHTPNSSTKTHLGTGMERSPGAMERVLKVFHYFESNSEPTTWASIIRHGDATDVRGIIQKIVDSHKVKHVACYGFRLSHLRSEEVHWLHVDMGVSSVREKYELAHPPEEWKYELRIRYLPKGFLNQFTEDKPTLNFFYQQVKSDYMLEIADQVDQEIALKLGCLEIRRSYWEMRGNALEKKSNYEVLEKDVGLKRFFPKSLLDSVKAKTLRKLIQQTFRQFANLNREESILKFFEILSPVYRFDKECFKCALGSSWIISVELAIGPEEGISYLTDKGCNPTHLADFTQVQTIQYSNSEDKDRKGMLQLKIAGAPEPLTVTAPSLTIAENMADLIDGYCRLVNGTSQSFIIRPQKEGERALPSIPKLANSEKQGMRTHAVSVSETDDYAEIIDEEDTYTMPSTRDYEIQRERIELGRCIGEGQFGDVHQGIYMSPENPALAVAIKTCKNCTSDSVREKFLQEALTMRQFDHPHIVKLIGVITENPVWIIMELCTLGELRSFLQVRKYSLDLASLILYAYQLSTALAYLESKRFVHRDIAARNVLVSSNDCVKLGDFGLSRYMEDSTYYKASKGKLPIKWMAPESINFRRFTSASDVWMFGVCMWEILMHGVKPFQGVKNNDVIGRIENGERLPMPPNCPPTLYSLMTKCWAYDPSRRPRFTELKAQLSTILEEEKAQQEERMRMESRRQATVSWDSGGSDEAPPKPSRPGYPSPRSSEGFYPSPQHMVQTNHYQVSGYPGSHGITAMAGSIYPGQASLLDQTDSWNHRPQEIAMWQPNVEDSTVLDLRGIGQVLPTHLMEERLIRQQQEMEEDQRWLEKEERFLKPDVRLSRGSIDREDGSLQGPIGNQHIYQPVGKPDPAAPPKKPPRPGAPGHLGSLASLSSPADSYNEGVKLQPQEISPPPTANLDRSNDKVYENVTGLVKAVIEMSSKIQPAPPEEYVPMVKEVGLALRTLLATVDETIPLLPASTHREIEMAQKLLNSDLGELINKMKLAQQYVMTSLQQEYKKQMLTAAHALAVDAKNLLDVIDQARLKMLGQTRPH

How the values were obtained:
Test in all cases: kinase-Nluc reporter destabilization hit call (1 = scored as downregulated) (binary); higher = compound decreases kinase abundance
Conditions in all cases: K562; 2-18 h
[1] = biological target: MAPK1 (UniProt P28482)
[2] = biological target: MAPK4 (UniProt P31152)
[3] = biological target: MAPKAPK2 (UniProt P49137)
[4] = biological target: MKNK1 (UniProt Q9BUB5)
[5] = biological target: NTRK2 (UniProt Q16620)
[6] = biological target: NTRK3 (UniProt Q16288)
[7] = biological target: PAK4 (UniProt O96013)
[8] = biological target: PBK (UniProt Q96KB5)
[9] = biological target: PDGFRB (UniProt P09619)
[10] = biological target: PDK1 (UniProt Q15118)
[11] = biological target: PDPK1 (UniProt O15530)
[12] = biological target: PIK4CA (UniProt P42356)
[13] = biological target: PIK4CB (UniProt Q9UBF8)
[14] = biological target: PLK1 (UniProt P53350)
[15] = biological target: PRKAA1 (UniProt Q13131)
[16] = biological target: PRKCA (UniProt P17252)
[17] = biological target: PTK2 (UniProt Q05397)
[18] = biological target: PTK2B (UniProt Q14289)
[19] = biological target: RAF1 (UniProt P04049)
[20] = biological target: RAF1_S257L (clone: RAF1_mut) (UniProt P04049)

Measured: kinase-Nluc reporter destabilization hit call

CC(=O)Nc1nc2ccc(-c3cnc(C)c(NC(=O)OC4CCCCC4)c3)cc2s1 (10 µM)
inactive: [1] 0 | [2] 0 | [3] 0 | [4] 0 | [5] 0 | [6] 0 | [7] 0 | [8] 0 | [9] 0 | [10] 0 | [11] 0 | [12] 0 | [13] 0 | [14] 0 | [15] 0 | [16] 0 | [17] 0 | [18] 0 | [19] 0 | [20] 0

O=C(Nc1ccc(Cl)cc1)C1CCCN(C(=O)c2cccc(-c3ccco3)c2)C1 (stereo not given) (2.5 µM)
inactive: [1] 0 | [2] 0 | [3] 0 | [4] 0 | [5] 0 | [6] 0 | [7] 0 | [8] 0 | [9] 0 | [10] 0 | [11] 0 | [12] 0 | [13] 0 | [14] 0 | [15] 0 | [16] 0 | [17] 0 | [18] 0 | [19] 0 | [20] 0

Cc1ccc(-c2nn(C(C)(C)CNC(=O)c3ccncc3)c3ncnc(N)c23)cc1 (2.5 µM)
inactive: [1] 0 | [2] 0 | [3] 0 | [4] 0 | [5] 0 | [6] 0 | [7] 0 | [8] 0 | [9] 0 | [10] 0 | [11] 0 | [12] 0 | [13] 0 | [14] 0 | [15] 0 | [16] 0 | [17] 0 | [18] 0 | [19] 0 | [20] 0

CC[C@@H]1[C@H](F)C(=O)N[C@@H]1COc1nccc2cc(C(N)=O)c(OC)cc12 (10 µM)
inactive: [1] 0 | [2] 0 | [3] 0 | [4] 0 | [5] 0 | [6] 0 | [7] 0 | [8] 0 | [9] 0 | [10] 0 | [11] 0 | [12] 0 | [13] 0 | [14] 0 | [15] 0 | [16] 0 | [17] 0 | [18] 0 | [19] 0 | [20] 0

O=Nc1c(-c2c(O)[nH]c3ccccc23)[nH]c2ccccc12 [Indirubin-3'-monoxime] (2.5 µM)
inactive: [1] 0 | [2] 0 | [3] 0 | [4] 0 | [5] 0 | [6] 0 | [7] 0 | [8] 0 | [9] 0 | [10] 0 | [11] 0 | [12] 0 | [13] 0 | [14] 0 | [15] 0 | [16] 0 | [17] 0 | [18] 0 | [19] 0 | [20] 0

COc1ccccc1/C=C1\C(=O)Nc2ccccc21 (10 µM)
inactive: [1] 0 | [2] 0 | [3] 0 | [4] 0 | [5] 0 | [6] 0 | [7] 0 | [8] 0 | [9] 0 | [10] 0 | [11] 0 | [12] 0 | [13] 0 | [14] 0 | [15] 0 | [16] 0 | [17] 0 | [18] 0 | [19] 0 | [20] 0

Three entries already listed, ordered by length of the SMILES, largest number first:
Cc1ccc(-c2nn(C(C)(C)CNC(=O)c3ccncc3)c3ncnc(N)c23)cc1 (2.5 µM)
inactive: [1] 0 | [2] 0 | [3] 0 | [4] 0 | [5] 0 | [6] 0 | [7] 0 | [8] 0 | [9] 0 | [10] 0 | [11] 0 | [12] 0 | [13] 0 | [14] 0 | [15] 0 | [16] 0 | [17] 0 | [18] 0 | [19] 0 | [20] 0

O=C(Nc1ccc(Cl)cc1)C1CCCN(C(=O)c2cccc(-c3ccco3)c2)C1 (stereo not given) (2.5 µM)
inactive: [1] 0 | [2] 0 | [3] 0 | [4] 0 | [5] 0 | [6] 0 | [7] 0 | [8] 0 | [9] 0 | [10] 0 | [11] 0 | [12] 0 | [13] 0 | [14] 0 | [15] 0 | [16] 0 | [17] 0 | [18] 0 | [19] 0 | [20] 0

COc1ccccc1/C=C1\C(=O)Nc2ccccc21 (10 µM)
inactive: [1] 0 | [2] 0 | [3] 0 | [4] 0 | [5] 0 | [6] 0 | [7] 0 | [8] 0 | [9] 0 | [10] 0 | [11] 0 | [12] 0 | [13] 0 | [14] 0 | [15] 0 | [16] 0 | [17] 0 | [18] 0 | [19] 0 | [20] 0

Next part.

CCc1c(C)sc(NC(=S)NC(=O)c2ccc(Cl)cc2)c1C(N)=O (10 µM)
inactive: [1] 0 | [2] 0 | [3] 0 | [4] 0 | [5] 0 | [6] 0 | [7] 0 | [8] 0 | [9] 0 | [10] 0 | [11] 0 | [12] 0 | [13] 0 | [14] 0 | [15] 0 | [16] 0 | [17] 0 | [18] 0 | [19] 0 | [20] 0

COc1ccc2c(=O)c(-c3ccccc3)coc2c1 [7-Methoxyisoflavone] (10 µM)
inactive: [1] 0 | [2] 0 | [3] 0 | [4] 0 | [5] 0 | [6] 0 | [7] 0 | [8] 0 | [9] 0 | [10] 0 | [11] 0 | [12] 0 | [13] 0 | [14] 0 | [15] 0 | [16] 0 | [17] 0 | [18] 0 | [19] 0 | [20] 0

CC(CCc1ccccn1)(CCc1ccccn1)C(=O)c1ccccc1 (10 µM)
inactive: [1] 0 | [2] 0 | [3] 0 | [4] 0 | [5] 0 | [6] 0 | [7] 0 | [8] 0 | [9] 0 | [10] 0 | [11] 0 | [12] 0 | [13] 0 | [14] 0 | [15] 0 | [16] 0 | [17] 0 | [18] 0 | [19] 0 | [20] 0

COc1ccc2c(c1)c(C1=C(c3c[nH]c4ccccc34)C(=O)NC1=O)cn2CCCN(C)C (10 µM)
inactive: [1] 0 | [2] 0 | [3] 0 | [4] 0 | [5] 0 | [6] 0 | [7] 0 | [8] 0 | [9] 0 | [10] 0 | [11] 0 | [12] 0 | [13] 0 | [14] 0 | [15] 0 | [16] 0 | [17] 0 | [18] 0 | [19] 0 | [20] 0

O=C1NCCCc2c1oc1ccc(O)cc21 (10 µM)
inactive: [1] 0 | [2] 0 | [3] 0 | [4] 0 | [5] 0 | [6] 0 | [7] 0 | [8] 0 | [9] 0 | [10] 0 | [11] 0 | [12] 0 | [13] 0 | [14] 0 | [15] 0 | [16] 0 | [17] 0 | [18] 0 | [19] 0 | [20] 0

COC1(C(=O)N[C@@H](C)c2ccc(-n3cc(F)cn3)nc2)CCC(c2nc(C)cc(Nc3cc(C)[nH]n3)n2)CC1 (stereo partly drawn) [trans-Pralsetinib] (2.5 µM)
inactive: [1] 0 | [2] 0 | [3] 0 | [4] 0 | [5] 0 | [6] 0 | [7] 0 | [8] 0 | [9] 0 | [10] 0 | [11] 0 | [12] 0 | [13] 0 | [14] 0 | [15] 0 | [16] 0 | [17] 0 | [18] 0 | [19] 0 | [20] 0

O=C(NOCCO)c1ccc2cncn2c1Nc1ccc(I)cc1F (10 µM)
inactive: [1] 0 | [2] 0 | [3] 0 | [4] 0 | [5] 0 | [6] 0 | [7] 0 | [8] 0 | [9] 0 | [10] 0 | [11] 0 | [12] 0 | [13] 0 | [14] 0 | [15] 0 | [16] 0 | [17] 0 | [18] 0 | [19] 0 | [20] 0

O=C(O)CCc1ccc(NCc2cccc(Oc3ccccc3)c2)cc1 (10 µM)
inactive: [1] 0 | [2] 0 | [3] 0 | [4] 0 | [5] 0 | [6] 0 | [7] 0 | [8] 0 | [9] 0 | [10] 0 | [11] 0 | [12] 0 | [13] 0 | [14] 0 | [15] 0 | [16] 0 | [17] 0 | [18] 0 | [19] 0 | [20] 0

O=C(O)c1ccc(-c2c[nH]c3ncc(-c4ccccc4)cc23)cc1C1CCCC1 (2.5 µM)
inactive: [1] 0 | [2] 0 | [3] 0 | [4] 0 | [5] 0 | [6] 0 | [7] 0 | [8] 0 | [9] 0 | [10] 0 | [11] 0 | [12] 0 | [13] 0 | [14] 0 | [15] 0 | [16] 0 | [17] 0 | [18] 0 | [19] 0 | [20] 0

N#C/C(=C(/N)Sc1ccc(N)cc1)c1ccccc1C(F)(F)F (10 µM)
inactive: [1] 0 | [2] 0 | [3] 0 | [4] 0 | [5] 0 | [6] 0 | [7] 0 | [8] 0 | [9] 0 | [10] 0 | [11] 0 | [12] 0 | [13] 0 | [14] 0 | [15] 0 | [16] 0 | [17] 0 | [18] 0 | [19] 0 | [20] 0

Oc1ccccc1C(=S)N1CCCC1 (10 µM)
inactive: [1] 0 | [2] 0 | [3] 0 | [4] 0 | [5] 0 | [6] 0 | [7] 0 | [8] 0 | [9] 0 | [10] 0 | [11] 0 | [12] 0 | [13] 0 | [14] 0 | [15] 0 | [16] 0 | [17] 0 | [18] 0 | [19] 0 | [20] 0

[O-][n+]1cccc(-c2nc3c(Cl)cccc3cc2[C@@H](Nc2ncnc3cccnc23)C(F)(F)F)c1 [Seletalisib] (10 µM)
inactive: [1] 0 | [2] 0 | [3] 0 | [4] 0 | [5] 0 | [6] 0 | [7] 0 | [8] 0 | [9] 0 | [10] 0 | [11] 0 | [12] 0 | [13] 0 | [14] 0 | [15] 0 | [16] 0 | [17] 0 | [18] 0 | [19] 0 | [20] 0
